Binding data for 5 molecules are collected here from patent US20220041709A1 (MITSUBISHI TANABE PHARMA, published 2022).

No constants are given. Whether binding was seen depends on the method and setting. Some results given as binding are weak or reduced against the parent protein; the word gives no strength.

The target of test [1] is T1, Human IL-33 (human, UniProt O95760 112-270, limits assumed).
T1 construct: also called NF-HEV
T1 sequence (looked up): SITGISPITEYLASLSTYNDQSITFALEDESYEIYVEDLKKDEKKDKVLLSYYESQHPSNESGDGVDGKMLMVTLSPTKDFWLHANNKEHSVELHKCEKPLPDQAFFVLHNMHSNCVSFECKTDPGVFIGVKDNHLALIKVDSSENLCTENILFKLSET
The experiment in a line: ELISA on plate-coated human IL-33; 10 mg/mL formulation stored 1, 2 and 3 years at 2 to 8 C. A general note: In an ELISA, binding on a coated surface is turned into a signal by an enzyme label.

Test [2] addresses T1, Human IL-33. The experiment in a line: ELISA on plate-coated human IL-33; 150 mg/mL formulation stored 3 and 6 months at 2 to 8 C.

B1: human anti-IL-33 monoclonal antibody A10-1C04 (antibody, human IgG1, lambda, V domains shown)
VH: EVQLLESGGGLVQPGGSLRLSCAASGFTFSDYYMNWVRQAPGKGLEWVSSISRYSSYIYYADSVKGRFTISRDNSKNTLYLQMNSLRAEDTAVYYCARDIGGMDVWGQGTLVTVSS
VL: QSVLTQPPSASGTPGQRVTISCTGSSSNIGAVYDVHWYQQLPGTAPKLLIYRNNQRPSGVPDRFSGSKSGTSASLAISGLRSEDEADYYCQTYDSSRWVFGGGTKLTVLG
notes: Detected with anti-human IgG antibody in the ELISA
Take B1: the binding result in test [1] and in test [2] was “binds” throughout.

B2: human anti-IL-33 monoclonal antibody A25-2C02 (antibody, human IgG1, lambda, V domains shown)
VH: EVQLLESGGGLVQPGGSLRLSCAASGFTFSNYYMHWVRQAPGKGLEWVSSISARSSYIYYADSVKGRFTISRDNSKNTLYLQMNSLRAEDTAVYYCARLATRNNAFDIWGQGTLVTVSS
VL: QSVLTQPPSASGTPGQRVTISCSGSSSNIGRNAVNWYQQLPGTAPKLLIYASNMRVSGVPDRFSGSKSGTSASLAISGLRSEDEADYYCWAWDDSQKVGVFGGGTKLTVLG
With B2, the binding entry in test [1] and in test [2] was “binds” each time.

B3: human anti-IL-33 monoclonal antibody A23-1A05 (antibody, human IgG1, lambda, V domains shown)
VH: EVQLLESGGGLVQPGGSLRLSCAASGFTFSNYYMHWVRQAPGKGLEWVSSISARSRYHYYADSVKGRFTISRDNSKNTLYLQMNSLRAEDTAVYYCARLATRHNAFDIWGQGTLVTVSS
VL: QSVLTQPPSASGTPGQRVTISCSGSSSNIGNNAVSWYQQLPGTAPKLLIYASNMRVIGVPDRFSGSKSGTSASLAISGLRSEDEADYYCGAWDDSQKALVFGGGTKLTVLG
As for B3, the binding result in test [1] and in test [2] was “binds” throughout.

B4: human anti-IL-33 monoclonal antibody A26-1F02 (antibody, human IgG1, lambda, V domains shown)
VH: EVQLLESGGGLVQPGGSLRLSCAASGFTFSNYYMHWVRQAPGKGLEWVSSISARSSYLYYADSVKGRFTISRDNSKNTLYLQMNSLRAEDTAVYYCARLATRHVAFDIWGQGTLVTVSS
VL: QSVLTQPPSASGTPGQRVTISCSGSSSNIGNNAVNWYQQLPGTAPKLLIYASNMRRPGVPDRFSGSKSGTSASLAISGLRSEDEADYYCEAWDDSQKAVVFGGGTKLTVLG
Consider B4, for which the binding entry in test [1] and in test [2] was “binds” in each case.

B5: human anti-IL-33 monoclonal antibody A25-3H04 (antibody, human IgG1, lambda, V domains shown)
VH: EVQLLESGGGLVQPGGSLRLSCAASGFTFSRYYMHWVRQAPGKGLEWVSSISAQSSHIYYADSVEGRFTISRDNSKNTLYLQMNSLRAEDTAVYYCARLATRQNAFDIWGQGTLVTVSS
VL: QSVLTQPPSASGTPGQRVTISCSGSSSNIGRNAVNWYQQLPGTAPKLLIYASNMRRSGVPDRFSGSKSGTSASLAISGLRSEDEADYYCSAWDDSQKVVVFGGGTKLTVLG
Regarding B5, the binding result in test [1] and in test [2] was “binds” in each case.
